Data: the MegaScale stability set (Tsuboyama et al. 2023)

B1: 6NMW (parent)
chain: QGDIVVALYPYDGIHPDDLSFKKGEKMKVLEEHGEWWKAKSLLTKKEGFIPSNYVAKLN

Variants of: B1
Experiment: folding stability dG (cDNA display proteolysis); higher = more stable
Conditions: PBS, room temperature

Row | Variant | folding stability dG
1 | K40H | 2.79 kcal/mol
2 | H33E | 2.44 kcal/mol
3 | H33S | 3.18 kcal/mol
4 | P16E | 3.23 kcal/mol
5 | F49Y | 3.74 kcal/mol
6 | V29I | 4.5 kcal/mol
7 | E35D | 3.86 kcal/mol
8 | K28Q | 4.41 kcal/mol
9 | K45G | 4.96 kcal/mol
10 | D12E | 4.32 kcal/mol
11 | G13A | 4.25 kcal/mol
12 | K38L | 4.46 kcal/mol
13 | K46Q | 3.35 kcal/mol
14 | M27L | 3.71 kcal/mol
15 | K26R | 4.02 kcal/mol
16 | L43T | 3.4 kcal/mol
17 | E32S | 3.82 kcal/mol
18 | E47T | 4.04 kcal/mol
19 | E31S | 3.76 kcal/mol
20 | E31N | 2.42 kcal/mol
21 | H15T | 2.9 kcal/mol
22 | I14R | 3.73 kcal/mol
